This assay has as its target Smad3 (Sma and Mad homologue 3) of mouse lung pericytes (mouse (endogenous in mouse lung pericytes)) (UniProt Q8BUN5). Put plainly: co-IP; Pierce Co-Immunoprecipitation Kit; mouse lung pericytes transfected with the indicated plasmids, with or without FoxM1 overexpression; TGF-β1 5 ng/mL for 16 h (Smad4 with TIF1γ) or 2 h (Smad3 with TIF1γ).

Amino acid sequences for entries named in this document (tags omitted).
UniProt Q8BUN5: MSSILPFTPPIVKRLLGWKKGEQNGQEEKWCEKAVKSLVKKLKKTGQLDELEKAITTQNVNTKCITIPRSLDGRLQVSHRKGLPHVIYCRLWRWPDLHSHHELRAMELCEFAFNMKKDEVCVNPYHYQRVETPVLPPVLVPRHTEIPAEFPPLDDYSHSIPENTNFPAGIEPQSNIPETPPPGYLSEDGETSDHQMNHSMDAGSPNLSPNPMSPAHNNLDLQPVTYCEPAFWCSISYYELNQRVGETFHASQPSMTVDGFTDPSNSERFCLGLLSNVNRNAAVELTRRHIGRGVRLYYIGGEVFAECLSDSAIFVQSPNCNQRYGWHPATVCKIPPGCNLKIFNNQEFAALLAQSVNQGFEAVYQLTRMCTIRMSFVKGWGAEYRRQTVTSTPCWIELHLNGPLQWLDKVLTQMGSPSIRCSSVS

No constants are given. Whether binding was seen depends on the method and setting. Binding seen in cells or lysates may run through a third protein. Some binding calls cover weakened binding; strength is not graded here.

B1: overexpressed TIF1γ (transcriptional intermediary factor 1 γ) in mouse lung pericytes (protein, UniProt Q99PP7 1-1142)
chain: MAENKGGGEAESGGGGSGSAPVTAGAAGPTAQEAEPPLAAVLVEEEEEEGGRAGAEGGAAGPDDGGVAAASSSSAPAASVPAASVGSAVPGGAASTPAPAAAPAPAPAPAPAPAPAPAPAPAPGSSSGPPLGPPASLLDTCAVCQQSLQSRREAEPKLLPCLHSFCLRCLPEPERQLSVPIPGGSNGDVQQVGVIRCPVCRQECRQIDLVDNYFVKDTSEAPSSSDEKSEQVCTSCEDNASAVGFCVECGEWLCKTCIEAHQRVKFTKDHLIRKKEDVSESVGTSGQRPVFCPVHKQEQLKLFCETCDRLTCRDCQLLEHKEHRYQFLEEAFQNQKGAIENLLAKLLEKKNYVHFAATQVQNRIKEVNETNKRVEQEIKVAIFTLINEINKKGKSLLQQLENVTKERQMKLLQQQNDITGLSRQVKHVMNFTNWAIASGSSTALLYSKRLITFQLRHILKARCDPVPAANGAIRFHCDPTFWAKNVVNLGNLVIESKPAPGYTPNVVVGQVPPGTNHISKTPGQINLAQLRLQHMQQQVYAQKHQQLQQMRLQQPPAPIPTTTATTQQHPRQAAPQMLQQQPPRLISVQTMQRGNMNCGAFQAHQMRLAQNAARIPGIPRHSAPQYSMMQPHLQRQHSNPGHAGPFPVVSAHNPINPTSPTTATMANANRGPTSPSVTAIELIPSVTNPENLPSLPDIPPIQLEDAGSSSLDNLLSRYISGSHLPPQPTSTMNPSPGPSALSPGSSGLSNSHTPVRPPSTSSTGSRGSCGSSGRTAEKSAHSFKSDQVKVKQEPGTEEEICSFSGAVKQEKTEDGRRSACMLSSPESSLTPPLSTNLHLESELDTLTGLENHVKTEPTDISESCKQSGLSNLVNGKSPIRNLMHRSARIGGDGNSKDDDPNEDWCAVCQNGGDLLCCEKCPKVFHLTCHVPTLLSFPSGDWICTFCRDIGKPEVEYDCDNMQHSKKGKTAQGLSPVDQRKCERLLLYLYCHELSIEFQEPVPVSIPNYYKIIKKPMDLSTVKKKLQKKHSQHYQIPDDFVADVRLIFKNCERFNEMMKVVQVYADTQEINLKGDSEVAKAGKAVALYFEDKLSEIYSDRTFTPLPEFEQDEDDGEVTEDSDEDFIQPRRKRLKSDERPVHIK
With B1, the binding entry is listed as “binds”.
